PubChem BioAssay AID1259297 – Sanger Institute – 2017
Test: 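Kinase knock-downs that lower colorectal cancer cell viability or act with drugs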 (primary screen). Cells: human RCM1 colorectal cancer cell line. Knock-down reagent: siRNA pool against human genes. Treatment: separate arms: DMSO vehicle, or one anchor drug at a mild dose: BYL719 1 µM, cetuximab 5 µg/ml, trametinib 10 nM. Read-out: 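Viability per well relative to a non-targeting pool, mean of replicates; robust z-score for knock-down alone; synergy score with BYL719, cetuximab or trametinib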. Scale: viability z-score, knock-down alone: higher = more viable cells than non-targeting controls. Hit rule: 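Essential when the viability robust z-score for knock-down alone is below -3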. Calls: active = essential when knocked down alone; inactive = no clear loss of viability alone.
The whole screen tested 794 reagents; shown is a random part of them. 13 of them (1.6%) were called active. 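Calls reflect knock-down without drug only; drug synergy is judged separately, with scores above 0.15 counted as synergy.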 Unmarked entries are inactive. Not all columns of the deposit are shown. Reagent sequences are not shown. Not given: the amount of reagent, the time to read-out.

The opening 5 entries, ahead of the listing:
gene	viability z-score, knock-down alone
PDK2 (GeneID 5164)	0.9
CDK12 (GeneID 51755)	0.249
PDXK (GeneID 8566)	0.9
ABL2 (GeneID 27)	0.9
PAK1 (GeneID 5058)	-2.38

The list itself, repeating the preview:
gene	viability z-score, knock-down alone
PDK2 (GeneID 5164)	0.9
CDK12 (GeneID 51755)	0.249
PDXK (GeneID 8566)	0.9
ABL2 (GeneID 27)	0.9
PAK1 (GeneID 5058)	-2.38
CERT1 (GeneID 10087)	-1.45
MAP3K2 (GeneID 10746)	0.00687
CREBBP (GeneID 1387)	-0.158
DIS3 (GeneID 22894)	-0.543
GALK1 (GeneID 2584)	-2.94
NAGK (GeneID 55577)	0.00189
ULK1 (GeneID 8408)	0.9
MOS (GeneID 4342)	-1.09
AURKB (GeneID 9212)	-0.367
FLT3 (GeneID 2322)	0.422
MST1R (GeneID 4486)	0.9
ITPKB (GeneID 3707)	0.862
DLG4 (GeneID 1742)	0.561
SYK (GeneID 6850)	-3.66 (active)
GSK3A (GeneID 2931)	-0.674
CALM1 (GeneID 801)	0.9
CDK6 (GeneID 1021)	0.0794
CLK3 (GeneID 1198)	0.9
SGK2 (GeneID 10110)	-0.432
MYH10 (GeneID 4628)	0.496
EXOSC10 (GeneID 5394)	0.817
IPMK (GeneID 253430)	0.9
DYRK1A (GeneID 1859)	0.513
IP6K3 (GeneID 117283)	-0.705
TBX3 (GeneID 6926)	0.488
DDR1 (GeneID 780)	0.9
PI4KB (GeneID 5298)	0.284
TP53RK (GeneID 112858)	0.171
GRK5 (GeneID 2869)	0.9
ROCK1 (GeneID 6093)	0.561
EPHB6 (GeneID 2051)	0.9
MYLK2 (GeneID 85366)	-0.948
ERBB2 (GeneID 2064)	-0.0563
IKBKB (GeneID 3551)	0.541
FN3K (GeneID 64122)	-0.445
MAP3K15 (GeneID 389840)	0.0689
PTGS1 (GeneID 5742)	-0.804
NEK5 (GeneID 341676)	-0.216
CSNK1E (GeneID 1454)	-0.261
TCF7L2 (GeneID 6934)	0.9
WNK4 (GeneID 65266)	0.9
UCK1 (GeneID 83549)	0.9
MAPK10 (GeneID 5602)	-0.267
RTN4 (GeneID 57142)	-0.364
ULK4 (GeneID 54986)	-1.03
NEK2 (GeneID 4751)	-0.0594
CDKN1B (GeneID 1027)	0.548
DCLK2 (GeneID 166614)	-0.445
DGKI (GeneID 9162)	0.449
NUAK1 (GeneID 9891)	-2.09
PIP4K2C (GeneID 79837)	-0.695
MAPK15 (GeneID 225689)	0.9
FCSK (GeneID 197258)	-0.449
PRKCE (GeneID 5581)	-0.812
AKT3 (GeneID 10000)	-0.876
HK1 (GeneID 3098)	0.394
PTPRU (GeneID 10076)	0.71
GUCY2F (GeneID 2986)	0.829
